PubChem BioAssay AID1053208, Peter MacCallum Cancer Centre | 2014
Test: 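Genes whose silencing cuts survival of bone tumour cells only with doxorubicin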 (primary screen). Cell system: mouse osteosarcoma cells, early-passage culture from an engineered mouse model of fibroblastic bone tumour. Reagent: siRNA pool against mouse genes, 40 nM. Time to read-out: about 120 h (48 h before drug, then 72 h with drug). Challenge: doxorubicin 100 nM for 72 h, roughly 30-40% inhibitory dose. Measurement: 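Viability read as ATP luminescence after 72 h of 100 nM doxorubicin or none, duplicate wells averaged, scaled to non-targeting siRNA, then expressed as robust z-scores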. Reading the numbers: viability z-score with doxorubicin: higher = more viable cells under doxorubicin; viability z-score without drug: higher = more viable cells with knock-down alone. Rule for the call: 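a pool counts as active when its viability z-score with doxorubicin is -2 or below and its z-score without drug lies between -2 and 2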.
The deposit covers about 17,000 reagents; shown is an unselected part. 788 of them (4.7%) were called active. 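Calls rest on z-score classes alone; an extra cut-off of viability at most 70% of control was not applied to them.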 The numbers tell different reagents against one gene apart. Not all columns of the deposit are shown. Reagent sequences are not shown.

The opening 4 entries, to show the layout:
| target | reagent | combined z-score class | viability z-score with doxorubicin | viability z-score without drug | activity call |
| --- | --- | --- | --- | --- | --- |
| Spg21 (SPG21, maspardin) | 1 | no change with or without drug | 0.67 | 0.34 | inactive |
| Fgf13 (fibroblast growth factor 13) | 1 | no change with or without drug | -1.24 | -0.51 | inactive |
| B430209F14Rik (RIKEN cDNA B430209F14 gene) | 1 | no change with or without drug | -1.12 | -0.51 | inactive |
| Pogz (pogo transposable element with ZNF domain) | 1 | no change with or without drug | 1.8 | 0.34 | inactive |

The list itself, from the start:
| target | reagent | combined z-score class | viability z-score with doxorubicin | viability z-score without drug | activity call |
| --- | --- | --- | --- | --- | --- |
| Spg21 (SPG21, maspardin) | 1 | no change with or without drug | 0.67 | 0.34 | inactive |
| Fgf13 (fibroblast growth factor 13) | 1 | no change with or without drug | -1.24 | -0.51 | inactive |
| B430209F14Rik (RIKEN cDNA B430209F14 gene) | 1 | no change with or without drug | -1.12 | -0.51 | inactive |
| Pogz (pogo transposable element with ZNF domain) | 1 | no change with or without drug | 1.8 | 0.34 | inactive |
| Psme2b (protease (prosome, macropain) activator subunit 2B) | 1 | no change with or without drug | 1.35 | 1.85 | inactive |
| Fimp1 (fertilization influencing membrane protein 1) | 1 | no change with or without drug | 0.22 | 1.69 | inactive |
| Rpe65 (retinal pigment epithelium 65) | 1 | no change with or without drug | -0.9 | 0.51 | inactive |
| Tmem40 (transmembrane protein 40) | 1 | no change with or without drug | 0.9 | 1.18 | inactive |
| Mims2 (mitochondrial inner membrane scaffold 2) | 1 | no change with or without drug | 1.8 | 0.84 | inactive |
| Ndufa7 (NADH:ubiquinone oxidoreductase subunit A7) | 1 | low cell count with doxorubicin only | -2.02 | -1.85 | active |
| Rnase2b | 1 | high cell count without drug only | 1.12 | 3.54 | inactive |
| Krt33a (keratin 33A) | 1 | no change with or without drug | -0.9 | 0.84 | inactive |
| Vmn2r89 (vomeronasal 2, receptor 89) | 1 | low cell count with doxorubicin only | -2.47 | -0.84 | active |
| Vmn2r89 (vomeronasal 2, receptor 89) | 2 | no change with or without drug | -1.57 | -0.84 | inactive |
| Slc2a3 | 1 | no change with or without drug | 0 | 0.84 | inactive |
| Mfsd11 (major facilitator superfamily domain containing 11) | 1 | no change with or without drug | -0.34 | 0.84 | inactive |
| Ccp110 (centriolar coiled coil protein 110) | 1 | low cell count without drug only | -0.67 | -5.9 | inactive |
| Dao (D-amino acid oxidase) | 1 | no change with or without drug | -0.11 | -0.34 | inactive |
| Slc49a3 | 1 | high cell count with doxorubicin only | 2.36 | 1.35 | inactive |
| Cysrt1 (cysteine rich tail 1) | 1 | no change with or without drug | 0.56 | 0.34 | inactive |
| Tenm1 (teneurin transmembrane protein 1) | 1 | no change with or without drug | -0.45 | -1.52 | inactive |
| Zfp593 (zinc finger protein 593) | 1 | no change with or without drug | -1.12 | -0.84 | inactive |
| Defa-rs2 (defensin, alpha, related sequence 2) | 1 | high cell count without drug only | 0.9 | 2.36 | inactive |
| Zfhx3 (zinc finger homeobox 3) | 1 | no change with or without drug | -1.24 | -0.34 | inactive |
| Mrps26 (mitochondrial ribosomal protein S26) | 1 | no change with or without drug | -0.45 | 0.51 | inactive |
| Lingo2 (leucine rich repeat and Ig domain containing 2) | 1 | no change with or without drug | -0.22 | 0.51 | inactive |
| Tmem65 (transmembrane protein 65) | 1 | high cell count without drug only | 0.45 | 2.36 | inactive |
| Trmt44 (tRNA methyltransferase 44) | 1 | no change with or without drug | 0.22 | 1.52 | inactive |
| Sgsm3 (small G protein signaling modulator 3) | 1 | no change with or without drug | 0.45 | -0.17 | inactive |
| Rem1 (rad and gem related GTP binding protein 1) | 1 | no change with or without drug | -0.45 | 0.17 | inactive |
| Or13p3 (olfactory receptor family 13 subfamily P member 3) | 1 | no change with or without drug | -0.56 | 0.51 | inactive |
| Rap1gds1 (RAP1, GTP-GDP dissociation stimulator 1) | 1 | no change with or without drug | 0.11 | 0.34 | inactive |
| Cnn3 (calponin 3, acidic) | 1 | no change with or without drug | -1.12 | -0.17 | inactive |
| Ankrd2 (ankyrin repeat domain 2) | 1 | low cell count with doxorubicin only | -2.02 | -1.52 | active |
